Results are given in words; binding and its absence hold for the method and conditions named. Binding seen in cells or lysates may run through a third protein. Some binding calls cover weakened binding; strength is not graded here.
Target: TrkA (rat (endogenous in PC12)) (UniProt P35739)
Experiment: co-IP; precipitation with a primary antibody against TrkA from PC12 cells with knockdown or overexpression of Cblb or Cbl; Cblb and Cbl detected by western blot

By UniProt entry, the sequences of proteins in these tests, tags left out. Residues count along the entry.
UniProt P35739, residues 33-799: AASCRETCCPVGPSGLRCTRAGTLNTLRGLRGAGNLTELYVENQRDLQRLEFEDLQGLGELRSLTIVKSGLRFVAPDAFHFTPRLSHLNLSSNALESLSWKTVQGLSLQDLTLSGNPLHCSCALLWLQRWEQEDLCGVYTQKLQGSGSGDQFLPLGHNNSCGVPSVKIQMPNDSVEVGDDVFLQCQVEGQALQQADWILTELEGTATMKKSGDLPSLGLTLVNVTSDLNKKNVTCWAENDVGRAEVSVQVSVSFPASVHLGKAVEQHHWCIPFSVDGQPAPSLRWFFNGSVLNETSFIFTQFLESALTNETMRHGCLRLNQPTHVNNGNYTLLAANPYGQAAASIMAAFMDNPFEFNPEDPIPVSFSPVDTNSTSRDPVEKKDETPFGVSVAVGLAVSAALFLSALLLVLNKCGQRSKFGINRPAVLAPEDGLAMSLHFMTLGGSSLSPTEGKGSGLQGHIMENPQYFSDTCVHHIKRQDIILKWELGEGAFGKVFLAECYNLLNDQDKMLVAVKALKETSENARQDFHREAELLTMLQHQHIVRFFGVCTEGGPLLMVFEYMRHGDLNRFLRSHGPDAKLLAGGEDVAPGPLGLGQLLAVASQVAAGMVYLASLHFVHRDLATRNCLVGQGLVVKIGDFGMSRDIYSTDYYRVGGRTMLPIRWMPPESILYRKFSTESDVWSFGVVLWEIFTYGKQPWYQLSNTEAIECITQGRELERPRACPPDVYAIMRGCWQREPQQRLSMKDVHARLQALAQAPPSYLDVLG
UniProt Q8K4S7: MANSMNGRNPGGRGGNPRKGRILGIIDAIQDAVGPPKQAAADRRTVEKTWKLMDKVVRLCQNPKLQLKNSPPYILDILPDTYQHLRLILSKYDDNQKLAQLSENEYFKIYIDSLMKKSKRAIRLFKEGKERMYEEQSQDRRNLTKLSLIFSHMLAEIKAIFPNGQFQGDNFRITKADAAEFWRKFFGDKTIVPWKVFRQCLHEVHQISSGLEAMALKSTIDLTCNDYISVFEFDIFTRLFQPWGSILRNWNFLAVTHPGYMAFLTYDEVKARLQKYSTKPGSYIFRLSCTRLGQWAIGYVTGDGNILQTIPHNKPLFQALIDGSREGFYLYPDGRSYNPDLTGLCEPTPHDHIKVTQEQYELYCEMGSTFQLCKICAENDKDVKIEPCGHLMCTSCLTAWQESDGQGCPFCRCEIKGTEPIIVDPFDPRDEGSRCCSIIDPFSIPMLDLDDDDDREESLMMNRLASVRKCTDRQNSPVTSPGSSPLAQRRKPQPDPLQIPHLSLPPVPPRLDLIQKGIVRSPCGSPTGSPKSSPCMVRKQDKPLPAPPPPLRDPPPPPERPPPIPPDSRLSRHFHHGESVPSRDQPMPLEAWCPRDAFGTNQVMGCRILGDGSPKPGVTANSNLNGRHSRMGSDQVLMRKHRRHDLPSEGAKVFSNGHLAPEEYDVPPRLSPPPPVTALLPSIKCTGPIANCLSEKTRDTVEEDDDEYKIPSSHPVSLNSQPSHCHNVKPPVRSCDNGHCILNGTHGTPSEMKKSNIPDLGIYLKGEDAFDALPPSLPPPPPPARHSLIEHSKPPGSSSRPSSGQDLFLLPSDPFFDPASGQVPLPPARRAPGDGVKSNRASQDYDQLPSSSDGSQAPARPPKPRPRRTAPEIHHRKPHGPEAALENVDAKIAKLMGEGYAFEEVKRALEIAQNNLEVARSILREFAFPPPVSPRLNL

## Cblb (from UniProt Q8K4S7 1-938) (enzyme)
  binding: binds

From article PMC7879635
